Data taken from article PMC5085148.
These are yes or no findings as the source states them, for the method shown. In cells and extracts the contact can be indirect. Some results given as binding are weak or reduced against the parent protein; the word gives no strength.

Sequences of proteins named here, by UniProt entry; tags and fusion partners are left off. Residues count along the entry.
UniProt P08581, residues 25-1390: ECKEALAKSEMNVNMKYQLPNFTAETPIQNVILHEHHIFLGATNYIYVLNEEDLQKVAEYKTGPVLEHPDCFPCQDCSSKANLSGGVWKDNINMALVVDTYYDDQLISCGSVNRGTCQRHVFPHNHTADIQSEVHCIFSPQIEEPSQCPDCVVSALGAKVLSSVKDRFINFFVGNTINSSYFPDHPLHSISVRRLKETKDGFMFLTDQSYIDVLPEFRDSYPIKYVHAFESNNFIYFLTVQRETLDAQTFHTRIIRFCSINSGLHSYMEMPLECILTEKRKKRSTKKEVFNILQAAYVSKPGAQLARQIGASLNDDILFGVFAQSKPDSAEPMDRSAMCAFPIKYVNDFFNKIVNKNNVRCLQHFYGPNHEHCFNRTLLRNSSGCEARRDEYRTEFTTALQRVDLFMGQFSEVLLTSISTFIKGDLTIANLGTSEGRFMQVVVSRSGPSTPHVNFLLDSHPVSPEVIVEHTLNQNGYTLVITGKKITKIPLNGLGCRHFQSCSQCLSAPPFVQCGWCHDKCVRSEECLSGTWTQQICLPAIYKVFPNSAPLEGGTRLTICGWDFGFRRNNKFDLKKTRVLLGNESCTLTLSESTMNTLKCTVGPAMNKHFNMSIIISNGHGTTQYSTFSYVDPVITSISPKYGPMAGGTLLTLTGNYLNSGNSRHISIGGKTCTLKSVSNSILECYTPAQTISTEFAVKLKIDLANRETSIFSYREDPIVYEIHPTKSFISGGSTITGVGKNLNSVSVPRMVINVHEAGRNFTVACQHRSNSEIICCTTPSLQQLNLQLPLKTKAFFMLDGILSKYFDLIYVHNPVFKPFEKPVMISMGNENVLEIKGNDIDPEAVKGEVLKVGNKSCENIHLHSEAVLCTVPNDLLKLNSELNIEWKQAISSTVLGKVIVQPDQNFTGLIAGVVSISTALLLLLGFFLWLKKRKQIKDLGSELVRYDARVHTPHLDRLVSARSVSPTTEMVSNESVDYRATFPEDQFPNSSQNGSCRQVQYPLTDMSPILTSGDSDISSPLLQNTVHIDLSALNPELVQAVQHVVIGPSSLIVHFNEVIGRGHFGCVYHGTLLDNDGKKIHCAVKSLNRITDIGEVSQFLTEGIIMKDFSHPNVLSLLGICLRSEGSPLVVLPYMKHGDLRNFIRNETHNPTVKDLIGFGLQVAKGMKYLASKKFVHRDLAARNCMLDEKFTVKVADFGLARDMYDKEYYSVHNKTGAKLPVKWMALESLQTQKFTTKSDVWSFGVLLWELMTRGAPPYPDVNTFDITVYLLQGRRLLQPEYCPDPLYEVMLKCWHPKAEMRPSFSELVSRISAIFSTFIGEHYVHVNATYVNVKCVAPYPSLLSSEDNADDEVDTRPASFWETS

Molecular target: c-Met (hepatocyte growth factor receptor, HGFR) (human (endogenous in AGS and HGC-27)) (UniProt P08581)
Assay: co-IP; lysates (RIPA buffer) of AGS and HGC-27 cells infected with Ad-PKG II and stimulated with 8-pCPT-cGMP (250 uM, 1 h; the legend adds HGF 50 ng/ml, 10 min); immunoprecipitated with anti-c-Met antibody and probed for PKG II, and with anti-PKG II antibody and probed for c-Met; isotype-matched IgG as control; 4°C

binding: binds
B1: type II cGMP-dependent protein kinase G (PKG II) (enzyme, UniProt Q13237 1-762)
chain: MGNGSVKPKHSKHPDGHSGNLTTDALRNKVTELERELRRKDAEIQEREYHLKELREQLSKQTVAIAELTEELQNKCIQLNKLQDVVHMQGGSPLQASPDKVPLEVHRKTSGLVSLHSRRGAKAGVSAEPTTRTYDLNKPPEFSFEKARVRKDSSEKKLITDALNKNQFLKRLDPQQIKDMVECMYGRNYQQGSYIIKQGEPGNHIFVLAEGRLEVFQGEKLLSSIPMWTTFGELAILYNCTRTASVKAITNVKTWALDREVFQNIMRRTAQARDEQYRNFLRSVSLLKNLPEDKLTKIIDCLEVEYYDKGDYIIREGEEGSTFFILAKGKVKVTQSTEGHDQPQLIKTLQKGEYFGEKALISDDVRSANIIAEENDVACLVIDRETFNQTVGTFEELQKYLEGYVANLNRDDEKRHAKRSMSNWKLSKALSLEMIQLKEKVARFSSSSPFQNLEIIATLGVGGFGRVELVKVKNENVAFAMKCIRKKHIVDTKQQEHVYSEKRILEELCSPFIVKLYRTFKDNKYVYMLLEACLGGELWSILRDRGSFDEPTSKFCVACVTEAFDYLHRLGIIYRDLKPENLILDAEGYLKLVDFGFAKKIGSGQKTWTFCGTPEYVAPEVILNKGHDFSVDFWSLGILVYELLTGNPPFSGVDQMMTYNLILKGIEKMDFPRKITRRPEDLIRRLCRQNPTERLGNLKNGINDIKKHRWLNGFNWEGLKARSLPSPLQRELKGPIDHSYFDKYPPEKGMPPDELSGWDKDF
